Data source: PubChem BioAssay AID504791 (Drosophila RNAi Screening Center, 2011)

Aim: 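Genes whose knock-down strengthens or weakens small-RNA reporter silencing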 (primary screen)
Cells: Drosophila S2-derived reporter cells
Reagent: long dsRNA against Drosophila genes, about 150-250 ng dsRNA per well (siRNA assay); about 80-120 ng (miRNA assay)
Timing: about 5 days (siRNA assay); about 4 days (miRNA assay)
Conditions: copper sulfate induction of reporters: 25 µM (siRNA assay); 200 mM stated (miRNA assay), 1-2 days before reading
Measurement: 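Per-well ratio of Renilla over firefly light, expressed relative to that plate's average ratio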
Units: stable assay Renilla, run 1 in luminescence; stable assay firefly, run 1 in luminescence
Rule for the call: 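First-pass picks had plate-scaled ratios over 1.5 for the siRNA assay, over 1.6 for the miRNA assay, or under 0.6; two distinct dsRNAs had to score alike on retest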
In all, the deposit lists about 23,000 reagents; below is an unselected part of those with a known target gene and a result. In the full data, 199 (0.86%) got an active call. 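Plate-scaled ratios behind the calls are not deposited; printed light signals are raw; many rows marked increased or decreased are still called inactive.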 Unmarked entries are inactive. The numbers tell different reagents against one gene apart. Names joined by + are all predicted targets of the reagent. Reagent sequences are not shown. The record does not give: the direction of the score.

After knock-down of CG34316, the record shows stable assay Renilla, run 1 = 4504; stable assay firefly, run 1 = 3.68e5. With knock-down of CG15233 the results were stable assay Renilla, run 1 = 13523; stable assay firefly, run 1 = 1.45e6. CG15260 gave stable assay Renilla, run 1 = 7426; stable assay firefly, run 1 = 4.01e5. Depletion of CG9799 came out at: stable assay Renilla, run 1 = 7640; stable assay firefly, run 1 = 5.76e5. For CG8323, the entry reads stable assay Renilla, run 1 = 6198; stable assay firefly, run 1 = 4.37e5. Against CG6403 the deposit lists stable assay Renilla, run 1 = 6050; stable assay firefly, run 1 = 3.60e5.

After knock-down of wit (wishful thinking), the screen gave stable assay Renilla, run 1 = 8080; stable assay firefly, run 1 = 3.74e5. Depletion of ENGase (Endo-beta-N-acetylglucosaminidase) #1 came out at: stable assay Renilla, run 1 = 4798; stable assay firefly, run 1 = 4.53e5. Depletion of ENGase (Endo-beta-N-acetylglucosaminidase) #2 resulted in: stable assay Renilla, run 1 = 5416; stable assay firefly, run 1 = 5.27e5. Depletion of Fer3HCH (Ferritin 3 heavy chain homologue) resulted in: stable assay Renilla, run 1 = 6259; stable assay firefly, run 1 = 3.97e5. CG14632 (retired record) scored stable assay Renilla, run 1 = 2831; stable assay firefly, run 1 = 2.60e5. Depletion of Muc68D (Mucin 68D) resulted in: stable assay Renilla, run 1 = 8663; stable assay firefly, run 1 = 4.14e5.

Knock-down of Send2 (Spermathecal endopeptidase 2) came out at: stable assay Renilla, run 1 = 7528; stable assay firefly, run 1 = 4.18e5. hwt (heavyweight) gave stable assay Renilla, run 1 = 4223; stable assay firefly, run 1 = 3.68e5. Mo25 scored stable assay Renilla, run 1 = 8721; stable assay firefly, run 1 = 5.15e5. After knock-down of CG9586, the screen gave stable assay Renilla, run 1 = 8355; stable assay firefly, run 1 = 3.98e5. Rcd5 (Reduction in Cnn dots 5) scored stable assay Renilla, run 1 = 12941; stable assay firefly, run 1 = 5.38e5.

Ordered by “stable assay Renilla, run 1” (descending): some entries from above.
Muc68D (Mucin 68D) | stable assay Renilla, run 1 = 8663; stable assay firefly, run 1 = 4.14e5
Fer3HCH (Ferritin 3 heavy chain homologue) | stable assay Renilla, run 1 = 6259; stable assay firefly, run 1 = 3.97e5
CG14632 (retired record) | stable assay Renilla, run 1 = 2831; stable assay firefly, run 1 = 2.60e5

The list goes on:
kug (kugelei) showed stable assay Renilla, run 1 = 8414; stable assay firefly, run 1 = 3.21e5. Mys45A (Mystery 45A) gave stable assay Renilla, run 1 = 9408; stable assay firefly, run 1 = 3.66e5. CG3919 gave stable assay Renilla, run 1 = 14802; stable assay firefly, run 1 = 3.99e5. After knock-down of SLIRP1 + anox the results were stable assay Renilla, run 1 = 8922; stable assay firefly, run 1 = 4.89e5. For dbo (diablo), the values are stable assay Renilla, run 1 = 8737; stable assay firefly, run 1 = 3.40e5. OtopLc (Otopetrin-like c) #1 showed stable assay Renilla, run 1 = 4695; stable assay firefly, run 1 = 2.72e5.

With knock-down of OtopLc (Otopetrin-like c) #2 the results were stable assay Renilla, run 1 = 2816; stable assay firefly, run 1 = 1.76e5. Knock-down of OtopLc (Otopetrin-like c) #3 came out at: stable assay Renilla, run 1 = 4811; stable assay firefly, run 1 = 2.61e5. With knock-down of Fur2 (Furin 2), the screen gave stable assay Renilla, run 1 = 6055; stable assay firefly, run 1 = 5.62e5. After knock-down of HemK2 + Snapin #1, the screen gave stable assay Renilla, run 1 = 12419; stable assay firefly, run 1 = 8.19e5. HemK2 + Snapin #2 scored stable assay Renilla, run 1 = 8155; stable assay firefly, run 1 = 4.79e5.
